According to article doi:10.1101/641977:
No constants are given. Whether binding was seen depends on the method and setting. In cells and extracts the contact can be indirect. These calls come from enrichment with a bait or labelling near it, and not all partners need be listed.

By UniProt entry, the sequences of proteins in these tests, tags left out. Where a name states a change or a piece, a line headed by the entry shows the natural chain unless it says otherwise. Chains listed by the source or under a name are the forms on record and can include a tag or linker.
FLAG-EZH2 (enhancer of zeste homolog 2), stably expressed in A375 cells (Q15910, form named): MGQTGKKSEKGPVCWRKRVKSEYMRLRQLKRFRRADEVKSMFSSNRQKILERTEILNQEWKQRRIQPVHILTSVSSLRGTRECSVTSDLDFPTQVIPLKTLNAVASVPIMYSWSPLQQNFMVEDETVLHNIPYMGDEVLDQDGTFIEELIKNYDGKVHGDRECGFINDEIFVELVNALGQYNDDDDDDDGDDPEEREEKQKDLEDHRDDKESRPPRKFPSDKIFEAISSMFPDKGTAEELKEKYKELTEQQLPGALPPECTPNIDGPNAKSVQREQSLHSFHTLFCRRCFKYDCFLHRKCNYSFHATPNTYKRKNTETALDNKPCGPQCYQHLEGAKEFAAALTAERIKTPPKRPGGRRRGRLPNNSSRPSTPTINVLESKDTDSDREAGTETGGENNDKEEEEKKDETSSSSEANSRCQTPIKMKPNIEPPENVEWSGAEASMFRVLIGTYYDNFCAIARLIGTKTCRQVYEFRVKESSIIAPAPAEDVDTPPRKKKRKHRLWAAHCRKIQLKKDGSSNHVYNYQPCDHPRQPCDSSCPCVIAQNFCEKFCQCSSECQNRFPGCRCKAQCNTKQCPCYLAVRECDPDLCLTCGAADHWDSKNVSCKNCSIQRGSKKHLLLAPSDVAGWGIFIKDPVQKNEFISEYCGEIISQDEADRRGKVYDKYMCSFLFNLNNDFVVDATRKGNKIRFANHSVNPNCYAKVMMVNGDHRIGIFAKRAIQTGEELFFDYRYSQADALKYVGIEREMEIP
UniProt Q01082: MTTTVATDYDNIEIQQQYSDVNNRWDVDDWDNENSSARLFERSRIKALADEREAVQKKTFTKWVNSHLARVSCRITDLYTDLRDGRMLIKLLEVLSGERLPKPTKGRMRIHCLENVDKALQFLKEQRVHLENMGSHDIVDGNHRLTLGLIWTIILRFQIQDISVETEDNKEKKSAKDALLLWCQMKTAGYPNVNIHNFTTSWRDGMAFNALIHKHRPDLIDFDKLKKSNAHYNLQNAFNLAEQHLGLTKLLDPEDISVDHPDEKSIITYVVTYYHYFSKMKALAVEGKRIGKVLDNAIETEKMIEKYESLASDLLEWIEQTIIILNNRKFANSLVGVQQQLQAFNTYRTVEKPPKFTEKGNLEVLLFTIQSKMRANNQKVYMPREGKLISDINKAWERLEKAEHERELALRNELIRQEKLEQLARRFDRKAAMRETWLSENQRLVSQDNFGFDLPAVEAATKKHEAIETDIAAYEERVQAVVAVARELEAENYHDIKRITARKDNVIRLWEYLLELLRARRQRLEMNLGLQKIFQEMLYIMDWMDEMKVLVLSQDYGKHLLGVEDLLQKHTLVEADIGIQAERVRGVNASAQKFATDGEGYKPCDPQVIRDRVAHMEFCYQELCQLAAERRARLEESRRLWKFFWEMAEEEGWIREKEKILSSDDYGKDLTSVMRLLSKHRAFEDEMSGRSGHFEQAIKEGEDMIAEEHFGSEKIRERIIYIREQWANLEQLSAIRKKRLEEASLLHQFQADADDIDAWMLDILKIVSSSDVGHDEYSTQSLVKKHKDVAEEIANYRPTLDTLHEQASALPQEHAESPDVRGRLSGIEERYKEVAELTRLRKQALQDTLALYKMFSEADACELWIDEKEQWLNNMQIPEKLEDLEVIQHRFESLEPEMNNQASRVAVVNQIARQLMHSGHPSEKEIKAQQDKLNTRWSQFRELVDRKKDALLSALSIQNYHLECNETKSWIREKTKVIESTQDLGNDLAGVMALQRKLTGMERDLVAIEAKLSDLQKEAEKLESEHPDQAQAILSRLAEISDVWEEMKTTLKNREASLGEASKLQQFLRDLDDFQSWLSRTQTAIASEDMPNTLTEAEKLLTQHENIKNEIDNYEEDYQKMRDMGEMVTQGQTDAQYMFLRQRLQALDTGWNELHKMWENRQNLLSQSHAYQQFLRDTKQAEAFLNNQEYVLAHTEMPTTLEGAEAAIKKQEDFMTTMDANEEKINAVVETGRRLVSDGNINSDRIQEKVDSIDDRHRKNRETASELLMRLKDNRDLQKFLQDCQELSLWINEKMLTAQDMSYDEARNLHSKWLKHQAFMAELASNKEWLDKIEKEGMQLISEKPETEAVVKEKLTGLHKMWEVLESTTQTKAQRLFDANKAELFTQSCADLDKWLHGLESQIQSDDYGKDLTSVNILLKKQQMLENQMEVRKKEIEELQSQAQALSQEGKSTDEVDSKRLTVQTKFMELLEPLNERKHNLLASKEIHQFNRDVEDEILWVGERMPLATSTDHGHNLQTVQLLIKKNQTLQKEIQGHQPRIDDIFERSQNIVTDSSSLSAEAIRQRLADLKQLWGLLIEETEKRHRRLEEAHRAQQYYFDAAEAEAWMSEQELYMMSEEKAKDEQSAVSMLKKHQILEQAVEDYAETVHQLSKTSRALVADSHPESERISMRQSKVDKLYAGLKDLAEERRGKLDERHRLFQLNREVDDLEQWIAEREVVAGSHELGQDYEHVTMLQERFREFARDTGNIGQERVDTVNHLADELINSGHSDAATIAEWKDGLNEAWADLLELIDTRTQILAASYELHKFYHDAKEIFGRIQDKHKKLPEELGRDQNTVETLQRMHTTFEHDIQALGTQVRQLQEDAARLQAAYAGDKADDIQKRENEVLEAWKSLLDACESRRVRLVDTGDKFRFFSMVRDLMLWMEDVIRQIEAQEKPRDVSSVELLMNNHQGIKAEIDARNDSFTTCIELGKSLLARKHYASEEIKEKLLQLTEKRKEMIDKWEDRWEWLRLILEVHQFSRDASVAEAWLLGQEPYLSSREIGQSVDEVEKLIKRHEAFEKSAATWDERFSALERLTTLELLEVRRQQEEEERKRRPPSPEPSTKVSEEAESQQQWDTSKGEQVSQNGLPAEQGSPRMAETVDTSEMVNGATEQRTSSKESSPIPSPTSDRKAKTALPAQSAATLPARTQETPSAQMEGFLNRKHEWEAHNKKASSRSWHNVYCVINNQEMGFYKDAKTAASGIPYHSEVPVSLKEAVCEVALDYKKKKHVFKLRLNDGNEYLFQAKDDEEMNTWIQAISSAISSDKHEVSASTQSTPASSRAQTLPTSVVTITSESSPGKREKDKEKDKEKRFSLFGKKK
UniProt Q93009: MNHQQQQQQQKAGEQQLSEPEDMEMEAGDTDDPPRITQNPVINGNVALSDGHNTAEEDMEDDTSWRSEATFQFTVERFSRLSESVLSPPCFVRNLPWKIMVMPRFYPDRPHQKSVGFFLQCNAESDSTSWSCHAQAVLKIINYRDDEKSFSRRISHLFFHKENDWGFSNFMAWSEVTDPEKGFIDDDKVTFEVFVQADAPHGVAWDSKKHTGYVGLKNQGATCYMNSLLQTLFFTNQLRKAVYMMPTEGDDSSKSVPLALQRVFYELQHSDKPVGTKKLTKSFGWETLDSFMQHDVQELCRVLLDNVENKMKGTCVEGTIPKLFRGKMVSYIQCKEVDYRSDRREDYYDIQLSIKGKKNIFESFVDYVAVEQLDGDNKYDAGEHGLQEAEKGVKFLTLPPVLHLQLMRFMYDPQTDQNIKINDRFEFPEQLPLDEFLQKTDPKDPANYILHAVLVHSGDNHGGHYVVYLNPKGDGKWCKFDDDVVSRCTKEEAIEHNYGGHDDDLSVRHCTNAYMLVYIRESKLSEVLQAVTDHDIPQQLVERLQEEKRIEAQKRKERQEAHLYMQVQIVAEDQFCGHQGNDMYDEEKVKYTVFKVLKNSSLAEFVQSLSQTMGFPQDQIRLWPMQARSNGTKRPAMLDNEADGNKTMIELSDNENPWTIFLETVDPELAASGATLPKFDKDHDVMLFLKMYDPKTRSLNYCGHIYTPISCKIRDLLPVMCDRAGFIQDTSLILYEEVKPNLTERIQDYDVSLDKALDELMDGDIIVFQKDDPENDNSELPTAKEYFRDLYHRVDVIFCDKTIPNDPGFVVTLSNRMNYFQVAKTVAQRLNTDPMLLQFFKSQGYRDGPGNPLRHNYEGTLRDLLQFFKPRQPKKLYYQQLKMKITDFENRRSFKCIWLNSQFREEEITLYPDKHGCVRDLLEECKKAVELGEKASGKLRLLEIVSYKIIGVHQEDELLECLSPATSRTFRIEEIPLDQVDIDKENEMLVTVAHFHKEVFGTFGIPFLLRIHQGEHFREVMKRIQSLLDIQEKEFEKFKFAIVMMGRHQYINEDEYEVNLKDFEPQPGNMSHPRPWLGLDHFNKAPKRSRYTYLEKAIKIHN

What follows are molecules tested against FLAG-EZH2 (enhancer of zeste homolog 2), stably expressed in A375 cells (UniProt Q15910) (assay: affinity purification with mass spectrometry).

Molecule	binding
SPTBN1, endogenous (from UniProt Q01082 1-2364)	binds
ubiquitin-specific protease 7 (USP7), endogenous (from UniProt Q93009 1-1102) (enzyme)	binds
OGT, endogenous (protein, UniProt O15294 1-1046) MASSVGNVADSTEPTKRMLSFQGLAELAHREYQAGDFEAAERHCMQLWRQEPDNTGVLLLLSSIHFQCRRLDRSAHFSTLAIKQNPLLAEAYSNLGNVYKERGQLQEAIEHYRHALRLKPDFIDGYINLAAALVAAGDMEGAVQAYVSALQYNPDLYCVRSDLGNLLKALGRLEEAKACYLKAIETQPNFAVAWSNLGCVFNAQGEIWLAIHHFEKAVTLDPNFLDAYINLGNVLKEARIFDRAVAAYLRALSLSPNHAVVHGNLACVYYEQGLIDLAIDTYRRAIELQPHFPDAYCNLANALKEKGSVAEAEDCYNTALRLCPTHADSLNNLANIKREQGNIEEAVRLYRKALEVFPEFAAAHSNLASVLQQQGKLQEALMHYKEAIRISPTFADAYSNMGNTLKEMQDVQGALQCYTRAIQINPAFADAHSNLASIHKDSGNIPEAIASYRTALKLKPDFPDAYCNLAHCLQIVCDWTDYDERMKKLVSIVADQLEKNRLPSVHPHHSMLYPLSHGFRKAIAERHGNLCLDKINVLHKPPYEHPKDLKLSDGRLRVGYVSSDFGNHPTSHLMQSIPGMHNPDKFEVFCYALSPDDGTNFRVKVMAEANHFIDLSQIPCNGKAADRIHQDGIHILVNMNGYTKGARNELFALRPAPIQAMWLGYPGTSGALFMDYIITDQETSPAEVAEQYSEKLAYMPHTFFIGDHANMFPHLKKKAVIDFKSNGHIYDNRIVLNGIDLKAFLDSLPDVKIVKMKCPDGGDNADSSNTALNMPVIPMNTIAEAVIEMINRGQIQITINGFSISNGLATTQINNKAATGEEVPRTIIVTTRSQYGLPEDAIVYCNFNQLYKIDPSTLQMWANILKRVPNSVLWLLRFPAVGEPNIQQYAQNMGLPQNRIIFSPVAPKEEHVRRGQLADVCLDTPLCNGHTTGMDVLWAGTPMVTMPGETLASRVAASQLTCLGCLELIAKNRQEYEDIAVKLGTDLEYLKKVRGKVWKQRISSPLFNTKQYTMELERLYLQMWEHYAAGNKPDHMIKPVEVTESA	binds
